The format of the assay is in vivo, male NMRI mice. The note with it: for % inhibition action ± SEM with naloxone: with naloxone hydrochloride 20 mg./kg. s.c. The method, then: […]. They were given a standard feed and water ad libitum up to the commencement of the experiments.
The test compounds were administered in a volume of 10 ml./kg./body weight per mouse. As carrier, there was used physiological sodium chloride solution or a suspension of 0.5% tragacanth in physiological sodium chloride solution.
The experimental results are given as average values with a mean error of the average value (x±S.E.M.). The ED50 values were calculated according to Litchfield and Wilcoxon (J. Pharmacol. Exp. Ther., 96, 99/1949). The compounds were thereby tested in 4 dosages (p≤0.5).
For the significance calculation, there was used Student's t test (see Angewandte Statistik, pub. Stringer Verlag, Berlin, Heidelberg, 242/1983), as well as the range sum test of Mann and Withney (Ann. Math. stat., 50, 1818/1947).
1.1. In the acetic acid writhing test (see R. Koster et al., Fed. proc., 18, 412/1954), the typical stretching movements referred to as "writhing", were produced by the intraperitoneal administration of a 0.6% acetic acid solution. 30 minutes previously, the substance to be tested was administered subcutaneously (s.c.) or orally ([…].) to the animals. 3 minutes after administration of the acetic acid solution, the total number of stretching movements in a period of time of 10 minutes was ascertained. From the decrease of the stretching reactions due to the action of the test compound in comparison with non-pretreated control groups, there was determined the percentage inhibition action.
1.2. Naloxone-antagonistic action in the writhing test.
20 Minutes before the subcutaneous administration of the test compounds, the animals were given 20 mg./kg. naloxone hydrochloride subcutaneously. The further carrying out of the experiments was as described above.

Where two headings read alike, the source gives them in different places.

With `COc1cccc(C2(O)CCCCC2CN(C)C)c1` (centres unmarked) [tramadol, 2-[(dimethylamino)-methyl]-1-(3-methoxyphenyl)-cyclohexanol, reference compound], the “% inhibition action ± SEM with naloxone” value is, setting by setting: (10 mg/kg s.c.) 30.4 ± 9.9%; (20 mg/kg s.c.) 60.5 ± 2.9%. Also, the “% inhibition action ± SEM without naloxone” value (10 mg/kg s.c.) was determined as 69.4 ± 5.5% and the “% inhibition action ± SEM without naloxone” value (20 mg/kg s.c.) is listed as 91.2 ± 2.0%. Besides, for the setting “after naloxone pretreatment, Student's t test”, the “significance of difference of inhibitory action with and without naloxone” value was “statistically significantly lower (t=8.41, p≤0.01)”.
